The target in one assay is HiBiT-tagged BCL-xL (Homo sapiens, UniProt Q07817). The assay can be described thus: NCI-H1650 BCL-xL protein levels, Nano-Glo HiBiT Lytic Detection. Conditions: read-out: Bcl-xl HIBIT NCIH1650 DC50, NCI-H1650 expressing HiBiT-tagged BCL-xL, overnight incubation. A general note: HiBiT is a short tag that completes a luciferase, so light tracks the accessible tagged protein.

Chains of the proteins cited; added tags and fusions are not shown.
UniProt Q07817, whole entry: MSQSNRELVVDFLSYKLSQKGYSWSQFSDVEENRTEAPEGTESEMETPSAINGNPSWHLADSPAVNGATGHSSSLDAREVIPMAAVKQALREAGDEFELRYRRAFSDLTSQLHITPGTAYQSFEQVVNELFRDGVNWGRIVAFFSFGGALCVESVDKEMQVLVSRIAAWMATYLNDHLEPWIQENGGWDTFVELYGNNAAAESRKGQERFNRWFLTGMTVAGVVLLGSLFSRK

The target in a further assay is Bcl-xL (Homo sapiens, UniProt Q07817). Nature of the assay: HCT116 Bcl-xL degradation, capillary-based immunoassay (WES). The conditions noted are these: for DC50: read-out: Bcl-xL DC50 (M) WES HCT116 24 h, HCT116, 24 h, 9-point serial dilution.
In assay [1] the test system is MOLT-4 cells. The assay can be described thus: MOLT-4 cell viability, MTT assay. The conditions noted are these: read-out: MOLT-4 MTT/48 h (IC50), MOLT-4, 48 h. For orientation: Tetrazolium dyes change colour on reduction, which living cells bring about.
Assay [2] deals with EBC-1 lung cancer cell line. The assay can be described thus: EBC-1 cell proliferation, CellTiter-Glo assay. The conditions noted are these: read-out: CTG 5 day Ebc1 GI50, Ebc-1 cell viability, 5 days of treatment.
The subject of assay [3] is MOLT-4 cells. Nature of the assay: MOLT-4 cell viability, CTG assay. The conditions noted are these: read-out: MOLT-4 CTG/48 h (IC50), MOLT-4, 48 h.

SMILES strings stand for the structures. Structures were worked out from names or drawings and are uncertain. Where only a bound is given, the exact number is not on record here.

Consider `Cc1ncsc1-c1ccc([C@H](C)NC(=O)[C@@H]2C[C@@H](O)CN2C(=O)[C@@H](NC(=O)CCCCN(C)CCCc2sc(N3CCCc4c3nnc(Nc3nc5ccccc5s3)c4C)nc2C(=O)O)C(C)(C)C)cc1`, for which the figures for the DC50 on HiBiT-tagged BCL-xL and at Bcl-xL were 200 nM and above 3.16e-07 M, respectively. For the same compound, the “Bcl-xL % @10 nM WES HCT116 24 h” value at Bcl-xL (HCT116, 10 nM, 24 h, % of untreated cells) is recorded as 91%. Besides, the “Bcl-xL % @100 nM WES HCT116 24 h” value on Bcl-xL (HCT116, 100 nM, 24 h, % of untreated cells) is on record as 62%. Further, the results for the IC50 in the assay on MOLT-4 cells [1] and with MOLT-4 cells [3] were 271 nM and 929 nM, respectively. In assay [2], the concentration for 50% growth inhibition (GI50) (in general, the concentration giving 50% growth inhibition) was 520 nM.
Take `Cc1ncsc1-c1ccc([C@H](C)NC(=O)[C@@H]2C[C@@H](O)CN2C(=O)[C@@H](NC(=O)CCNC(=O)c2nc(N3CCCc4c3nnc(Nc3nc5ccccc5s3)c4C)ccc2-c2cnn(CC34CC5(C)CC(C)(C3)CC(OCCN3CCCC3)(C5)C4)c2C)C(C)(C)C)cc1`: the DC50 on HiBiT-tagged BCL-xL is above 1670 nM; at Bcl-xL it was above 3.16e-07 M. Also, the GI50 in assay [2] came to 37 nM. For the same compound, the IC50 in the assay with MOLT-4 cells [3] was 5.6 nM.

Values taken from patent US20240376094A2, “SELECTIVE BCL-XL PROTAC COMPOUNDS AND METHODS OF USE” (Les Laboratoires Servier, priority 2021, published 2024).
